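Malaria parasite (P. falciparum) lines kept in red blood cells; parasite DNA is measured by SYBR Green fluorescence after lysis, 72 h after compound addition.
Each compound was titrated across a series from about 0.000037 to 29 µM.
The number is the fitted AC50, the concentration giving a half-maximal change in signal; a lower value means higher potency, whether the curve shows a decrease or an increase.
Calls follow the curve class and fit quality: every row here is inconclusive, covering signal-raising curves and weak, poorly fitted, partial or highest-dose-only inhibition curves.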

Values are in µM.
All entries here are filed as inconclusive.
These entries are mostly ones the record files as inconclusive; other results of the assay are not listed here.
Potencies fitted to partial, single-point or poorly fitting curves are rough.
Some entries filed as inconclusive have a full curve.

Compound,tested on / at,Potency (µM),curve
C=C1CC[C@@]2(O)[C@H]3Cc4ccc(O)c5c4[C@@]2(CCN3CC2CC2)[C@H]1O5,DIV14,19.01,"inhibitor, partial curve, poor fit"
C=C1CC[C@@]2(O)[C@H]3Cc4ccc(O)c5c4[C@@]2(CCN3CC2CC2)[C@H]1O5,CP260,17.78,"inhibitor, single point"
C=C1CC[C@@]2(O)[C@H]3Cc4ccc(O)c5c4[C@@]2(CCN3CC2CC2)[C@H]1O5,CP237,17.78,"inhibitor, single point"
C=C1CC[C@@]2(O)[C@H]3Cc4ccc(O)c5c4[C@@]2(CCN3CC2CC2)[C@H]1O5,GB4,4.776,"inhibitor, partial curve, poor fit"
C=C1CC[C@@]2(O)[C@H]3Cc4ccc(O)c5c4[C@@]2(CCN3CC2CC2)[C@H]1O5,CP191,7.08,"inhibitor, partial curve"
O=C(CS(=O)C(c1ccccc1)c1ccccc1)NO (configuration not stated),CP260,10,"inhibitor, single point"
O=C(CS(=O)C(c1ccccc1)c1ccccc1)NO (configuration not stated),TAB109,1.995,"inhibitor, single point"
c1csc(C2(N3CCCCC3)CCCCC2)c1,DIV14,13.46,"inhibitor, partial curve, poor fit"
c1csc(C2(N3CCCCC3)CCCCC2)c1,Dd2,12.59,"inhibitor, partial curve"
c1csc(C2(N3CCCCC3)CCCCC2)c1,CP237,7.943,"inhibitor, partial curve"
O=S(=O)(O)c1cc(O)c2c(N=Nc3ccc(Nc4ccccc4)c4c(S(=O)(=O)O)cccc34)cc(S(=O)(=O)O)cc2c1,CP297,7.569,"inhibitor, partial curve, poor fit"
O=S(=O)(O)c1cc(O)c2c(N=Nc3ccc(Nc4ccccc4)c4c(S(=O)(=O)O)cccc34)cc(S(=O)(=O)O)cc2c1,7G8,11.22,"inhibitor, single point"
O=S(=O)(O)c1cc(O)c2c(N=Nc3ccc(Nc4ccccc4)c4c(S(=O)(=O)O)cccc34)cc(S(=O)(=O)O)cc2c1,PC49,10,"inhibitor, single point"
O=S(=O)(O)c1cc(O)c2c(N=Nc3ccc(Nc4ccccc4)c4c(S(=O)(=O)O)cccc34)cc(S(=O)(=O)O)cc2c1,CP286,10,"inhibitor, single point"
O=S(=O)(O)c1cc(O)c2c(N=Nc3ccc(Nc4ccccc4)c4c(S(=O)(=O)O)cccc34)cc(S(=O)(=O)O)cc2c1,DIV14,19.01,"inhibitor, single point"
O=S(=O)(O)c1cc(O)c2c(N=Nc3ccc(Nc4ccccc4)c4c(S(=O)(=O)O)cccc34)cc(S(=O)(=O)O)cc2c1,Dd2,14.13,"inhibitor, partial curve"
O=S(=O)(O)c1cc(O)c2c(N=Nc3ccc(Nc4ccccc4)c4c(S(=O)(=O)O)cccc34)cc(S(=O)(=O)O)cc2c1,CP265,4.467,"inhibitor, partial curve"
O=S(=O)(O)c1cc(O)c2c(N=Nc3ccc(Nc4ccccc4)c4c(S(=O)(=O)O)cccc34)cc(S(=O)(=O)O)cc2c1,TAB165,15.85,"inhibitor, single point"
O=S(=O)(O)c1cc(O)c2c(N=Nc3ccc(Nc4ccccc4)c4c(S(=O)(=O)O)cccc34)cc(S(=O)(=O)O)cc2c1,CP192,13.46,"inhibitor, partial curve, poor fit"
O=S(=O)(O)c1cc(O)c2c(N=Nc3ccc(Nc4ccccc4)c4c(S(=O)(=O)O)cccc34)cc(S(=O)(=O)O)cc2c1,N140,19.95,"inhibitor, single point"
O=S(=O)(O)c1cc(O)c2c(N=Nc3ccc(Nc4ccccc4)c4c(S(=O)(=O)O)cccc34)cc(S(=O)(=O)O)cc2c1,CP215,12,"inhibitor, single point"
O=S(=O)(O)c1cc(O)c2c(N=Nc3ccc(Nc4ccccc4)c4c(S(=O)(=O)O)cccc34)cc(S(=O)(=O)O)cc2c1,DIV17,13.46,"inhibitor, partial curve, poor fit"
O=S(=O)(O)c1cc(O)c2c(N=Nc3ccc(Nc4ccccc4)c4c(S(=O)(=O)O)cccc34)cc(S(=O)(=O)O)cc2c1,CP191,17.78,"inhibitor, single point"
O=S(=O)(O)c1cc(O)c2c(N=Nc3ccc(Nc4ccccc4)c4c(S(=O)(=O)O)cccc34)cc(S(=O)(=O)O)cc2c1,CP266,13.46,"inhibitor, single point"
O=S(=O)(O)c1cc(O)c2c(N=Nc3ccc(Nc4ccccc4)c4c(S(=O)(=O)O)cccc34)cc(S(=O)(=O)O)cc2c1,TAB113,1.259,"inhibitor, full curve"
O=S(=O)(O)c1cc(O)c2c(N=Nc3ccc(Nc4ccccc4)c4c(S(=O)(=O)O)cccc34)cc(S(=O)(=O)O)cc2c1,CP250,1,"inhibitor, full curve"
O=S(=O)(O)c1cc(O)c2c(N=Nc3ccc(Nc4ccccc4)c4c(S(=O)(=O)O)cccc34)cc(S(=O)(=O)O)cc2c1,CP291,13.46,"inhibitor, single point"

The first 2 entries again:

| Compound | tested on / at | Potency (µM) | curve |
|---|---|---|---|
| `C=C1CC[C@@]2(O)[C@H]3Cc4ccc(O)c5c4[C@@]2(CCN3CC2CC2)[C@H]1O5` | DIV14 | 19.01 | inhibitor, partial curve, poor fit |
| `C=C1CC[C@@]2(O)[C@H]3Cc4ccc(O)c5c4[C@@]2(CCN3CC2CC2)[C@H]1O5` | CP260 | 17.78 | inhibitor, single point |

From PubChem BioAssay record AID504749 (NCATS, 2011).